Assay results: doi:10.1101/2024.07.03.601791
No constants are given. Whether binding was seen depends on the method and setting. Some entries that bind do so weakly or less than the wild type. Sequences can lack the tags named with a protein.

The chains behind the UniProt entries cited, without tags or fusion partners. Residues count along the entry.
UniProt Q92973, residues 9-898: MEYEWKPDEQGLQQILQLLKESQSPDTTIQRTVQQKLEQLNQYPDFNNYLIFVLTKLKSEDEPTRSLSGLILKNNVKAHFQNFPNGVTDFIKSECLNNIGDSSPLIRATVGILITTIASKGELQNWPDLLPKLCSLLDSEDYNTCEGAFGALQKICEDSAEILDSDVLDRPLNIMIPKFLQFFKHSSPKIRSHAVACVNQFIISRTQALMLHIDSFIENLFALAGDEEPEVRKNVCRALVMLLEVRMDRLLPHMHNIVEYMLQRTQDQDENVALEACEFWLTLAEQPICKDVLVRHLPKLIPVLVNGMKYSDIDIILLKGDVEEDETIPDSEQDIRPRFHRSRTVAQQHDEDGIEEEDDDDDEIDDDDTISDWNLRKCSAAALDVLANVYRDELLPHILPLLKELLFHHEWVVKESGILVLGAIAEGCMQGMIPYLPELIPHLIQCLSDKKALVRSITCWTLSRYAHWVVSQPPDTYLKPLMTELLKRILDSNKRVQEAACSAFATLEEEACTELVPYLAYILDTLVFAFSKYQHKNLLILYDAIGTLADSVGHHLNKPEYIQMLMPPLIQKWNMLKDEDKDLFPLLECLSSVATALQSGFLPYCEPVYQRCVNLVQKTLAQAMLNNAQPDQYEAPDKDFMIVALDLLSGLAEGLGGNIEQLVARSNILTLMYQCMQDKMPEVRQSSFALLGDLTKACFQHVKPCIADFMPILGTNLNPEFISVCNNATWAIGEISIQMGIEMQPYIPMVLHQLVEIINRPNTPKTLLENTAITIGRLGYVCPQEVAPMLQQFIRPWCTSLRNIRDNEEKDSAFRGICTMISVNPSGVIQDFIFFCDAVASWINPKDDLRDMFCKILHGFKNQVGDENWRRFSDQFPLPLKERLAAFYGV

Molecular target: GST-Kapβ2 (human) (UniProt Q92973)
Test: pull-down

How did the binding turn out when PSNYGPMKSGNFGGSRNMGGPYGGGNYGPGGSGGSGGYG (domain or fragment, UniProt P22626-2 298-336) [MBP fused with the NLS region of hnRNPA2 (NLS, residues 298-336)] was run?
Its binding is “binds”.
